29 targets from the supplement of paper PMC10849652 can be followed below.

By UniProt entry, the sequences of proteins in these tests, tags left out. Where a name states a change or a piece, a line headed by the entry shows the natural chain unless it says otherwise.
UniProt Q96FQ6: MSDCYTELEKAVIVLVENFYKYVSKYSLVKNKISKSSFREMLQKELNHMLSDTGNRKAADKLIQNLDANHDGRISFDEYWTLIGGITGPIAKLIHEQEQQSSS
UniProt P29034: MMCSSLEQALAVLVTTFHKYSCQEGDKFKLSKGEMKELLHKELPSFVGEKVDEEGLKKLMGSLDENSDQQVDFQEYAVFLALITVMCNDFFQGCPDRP
UniProt Q96IW7: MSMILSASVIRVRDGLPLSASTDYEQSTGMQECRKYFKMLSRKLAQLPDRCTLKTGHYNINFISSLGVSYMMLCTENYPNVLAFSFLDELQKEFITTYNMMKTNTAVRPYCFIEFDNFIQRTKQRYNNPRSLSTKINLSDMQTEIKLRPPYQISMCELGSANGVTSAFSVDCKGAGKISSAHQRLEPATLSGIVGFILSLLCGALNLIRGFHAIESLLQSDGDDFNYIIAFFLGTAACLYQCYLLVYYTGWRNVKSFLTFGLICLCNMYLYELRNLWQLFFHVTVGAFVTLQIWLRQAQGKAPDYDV
UniProt O00560: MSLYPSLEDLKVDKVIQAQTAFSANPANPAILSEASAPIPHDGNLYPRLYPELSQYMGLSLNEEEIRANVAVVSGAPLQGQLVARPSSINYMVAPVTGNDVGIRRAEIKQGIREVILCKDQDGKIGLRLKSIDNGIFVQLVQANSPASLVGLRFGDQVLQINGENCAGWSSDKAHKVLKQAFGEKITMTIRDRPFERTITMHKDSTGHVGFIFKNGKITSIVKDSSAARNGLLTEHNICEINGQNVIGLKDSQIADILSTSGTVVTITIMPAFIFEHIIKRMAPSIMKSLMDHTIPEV
UniProt Q9NQC3: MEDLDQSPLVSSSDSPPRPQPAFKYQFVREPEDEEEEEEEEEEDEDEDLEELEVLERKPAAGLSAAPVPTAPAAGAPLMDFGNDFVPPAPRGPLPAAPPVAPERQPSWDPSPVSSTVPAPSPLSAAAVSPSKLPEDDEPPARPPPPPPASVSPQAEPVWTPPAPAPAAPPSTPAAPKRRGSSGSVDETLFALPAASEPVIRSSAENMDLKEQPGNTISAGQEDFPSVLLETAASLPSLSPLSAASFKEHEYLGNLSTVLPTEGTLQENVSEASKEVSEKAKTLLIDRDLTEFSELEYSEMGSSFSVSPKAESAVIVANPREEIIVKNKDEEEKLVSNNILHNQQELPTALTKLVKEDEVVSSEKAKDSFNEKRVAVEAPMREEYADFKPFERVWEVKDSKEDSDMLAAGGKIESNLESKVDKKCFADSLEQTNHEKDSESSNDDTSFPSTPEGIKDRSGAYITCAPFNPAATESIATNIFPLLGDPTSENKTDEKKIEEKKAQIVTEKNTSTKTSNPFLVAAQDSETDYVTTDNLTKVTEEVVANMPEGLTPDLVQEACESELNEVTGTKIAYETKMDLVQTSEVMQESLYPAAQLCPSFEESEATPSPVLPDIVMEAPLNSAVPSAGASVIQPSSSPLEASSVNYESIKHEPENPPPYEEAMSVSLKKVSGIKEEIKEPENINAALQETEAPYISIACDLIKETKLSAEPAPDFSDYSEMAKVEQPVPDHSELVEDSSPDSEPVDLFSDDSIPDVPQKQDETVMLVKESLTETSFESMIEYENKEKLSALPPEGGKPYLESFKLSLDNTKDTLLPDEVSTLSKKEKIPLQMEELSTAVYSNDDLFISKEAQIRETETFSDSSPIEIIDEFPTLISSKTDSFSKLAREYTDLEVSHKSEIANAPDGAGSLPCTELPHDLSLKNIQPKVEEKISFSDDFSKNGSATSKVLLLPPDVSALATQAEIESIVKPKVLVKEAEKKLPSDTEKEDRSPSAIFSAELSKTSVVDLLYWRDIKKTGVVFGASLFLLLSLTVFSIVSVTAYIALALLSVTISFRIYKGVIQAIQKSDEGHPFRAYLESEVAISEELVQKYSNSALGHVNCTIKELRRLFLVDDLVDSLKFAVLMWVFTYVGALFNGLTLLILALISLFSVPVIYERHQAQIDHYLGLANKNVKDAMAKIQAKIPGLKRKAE
UniProt A6ZKI3: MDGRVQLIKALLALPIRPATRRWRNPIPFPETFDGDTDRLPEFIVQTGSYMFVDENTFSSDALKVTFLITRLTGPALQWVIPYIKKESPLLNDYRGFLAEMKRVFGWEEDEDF
UniProt Q9HCY8: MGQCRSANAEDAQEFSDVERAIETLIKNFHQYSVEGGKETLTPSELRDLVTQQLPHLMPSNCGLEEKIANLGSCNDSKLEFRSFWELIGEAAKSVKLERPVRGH
UniProt Q7L3V2: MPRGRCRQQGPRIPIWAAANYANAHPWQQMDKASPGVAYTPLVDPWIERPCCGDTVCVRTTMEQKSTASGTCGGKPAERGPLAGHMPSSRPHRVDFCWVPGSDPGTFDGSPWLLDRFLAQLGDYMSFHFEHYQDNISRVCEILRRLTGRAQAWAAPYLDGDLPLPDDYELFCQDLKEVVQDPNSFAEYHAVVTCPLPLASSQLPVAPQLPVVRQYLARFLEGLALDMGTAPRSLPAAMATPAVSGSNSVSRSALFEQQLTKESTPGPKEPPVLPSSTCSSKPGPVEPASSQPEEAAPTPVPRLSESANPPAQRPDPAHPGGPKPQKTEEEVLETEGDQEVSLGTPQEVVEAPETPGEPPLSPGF
UniProt Q14160: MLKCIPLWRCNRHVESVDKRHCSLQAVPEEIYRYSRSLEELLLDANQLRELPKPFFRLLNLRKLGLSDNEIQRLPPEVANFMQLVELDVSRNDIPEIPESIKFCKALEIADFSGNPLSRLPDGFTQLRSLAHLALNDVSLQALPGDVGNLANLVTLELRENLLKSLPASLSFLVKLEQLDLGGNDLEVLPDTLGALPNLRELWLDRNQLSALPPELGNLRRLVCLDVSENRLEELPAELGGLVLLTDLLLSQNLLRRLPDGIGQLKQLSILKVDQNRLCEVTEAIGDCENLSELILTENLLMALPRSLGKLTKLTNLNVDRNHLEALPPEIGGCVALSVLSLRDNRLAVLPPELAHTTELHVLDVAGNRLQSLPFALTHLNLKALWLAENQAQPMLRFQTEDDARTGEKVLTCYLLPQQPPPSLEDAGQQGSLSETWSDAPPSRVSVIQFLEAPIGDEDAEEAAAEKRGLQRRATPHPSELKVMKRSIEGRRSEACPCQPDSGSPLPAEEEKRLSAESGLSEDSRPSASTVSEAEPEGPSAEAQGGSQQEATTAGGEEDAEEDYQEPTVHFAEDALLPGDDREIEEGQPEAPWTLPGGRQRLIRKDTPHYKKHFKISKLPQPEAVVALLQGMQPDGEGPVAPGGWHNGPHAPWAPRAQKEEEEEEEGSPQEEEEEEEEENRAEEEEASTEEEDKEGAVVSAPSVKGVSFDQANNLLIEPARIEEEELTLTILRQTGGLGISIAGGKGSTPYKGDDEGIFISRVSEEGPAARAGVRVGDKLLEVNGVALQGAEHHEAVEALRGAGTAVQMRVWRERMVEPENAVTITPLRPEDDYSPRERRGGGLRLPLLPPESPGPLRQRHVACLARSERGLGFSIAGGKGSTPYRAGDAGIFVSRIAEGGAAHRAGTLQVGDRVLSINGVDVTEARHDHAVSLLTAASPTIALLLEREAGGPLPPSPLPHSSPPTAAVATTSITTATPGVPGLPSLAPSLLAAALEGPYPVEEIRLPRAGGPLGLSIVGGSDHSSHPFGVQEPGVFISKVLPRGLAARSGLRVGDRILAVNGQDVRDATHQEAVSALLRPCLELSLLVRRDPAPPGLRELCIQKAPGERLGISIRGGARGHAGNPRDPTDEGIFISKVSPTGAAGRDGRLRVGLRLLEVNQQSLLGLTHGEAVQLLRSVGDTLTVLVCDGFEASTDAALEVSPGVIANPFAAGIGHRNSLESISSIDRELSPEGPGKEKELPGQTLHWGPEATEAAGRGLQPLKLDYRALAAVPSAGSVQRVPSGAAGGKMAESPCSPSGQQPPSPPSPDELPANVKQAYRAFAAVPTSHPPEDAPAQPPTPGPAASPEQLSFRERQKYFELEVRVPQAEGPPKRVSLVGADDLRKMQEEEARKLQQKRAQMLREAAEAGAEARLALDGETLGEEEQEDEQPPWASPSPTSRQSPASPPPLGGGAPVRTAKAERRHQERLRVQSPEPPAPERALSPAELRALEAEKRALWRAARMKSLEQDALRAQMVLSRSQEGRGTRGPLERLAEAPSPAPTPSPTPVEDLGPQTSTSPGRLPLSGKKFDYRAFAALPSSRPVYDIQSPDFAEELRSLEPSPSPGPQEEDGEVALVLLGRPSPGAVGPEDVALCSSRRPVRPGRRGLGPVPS
UniProt Q8IZE3: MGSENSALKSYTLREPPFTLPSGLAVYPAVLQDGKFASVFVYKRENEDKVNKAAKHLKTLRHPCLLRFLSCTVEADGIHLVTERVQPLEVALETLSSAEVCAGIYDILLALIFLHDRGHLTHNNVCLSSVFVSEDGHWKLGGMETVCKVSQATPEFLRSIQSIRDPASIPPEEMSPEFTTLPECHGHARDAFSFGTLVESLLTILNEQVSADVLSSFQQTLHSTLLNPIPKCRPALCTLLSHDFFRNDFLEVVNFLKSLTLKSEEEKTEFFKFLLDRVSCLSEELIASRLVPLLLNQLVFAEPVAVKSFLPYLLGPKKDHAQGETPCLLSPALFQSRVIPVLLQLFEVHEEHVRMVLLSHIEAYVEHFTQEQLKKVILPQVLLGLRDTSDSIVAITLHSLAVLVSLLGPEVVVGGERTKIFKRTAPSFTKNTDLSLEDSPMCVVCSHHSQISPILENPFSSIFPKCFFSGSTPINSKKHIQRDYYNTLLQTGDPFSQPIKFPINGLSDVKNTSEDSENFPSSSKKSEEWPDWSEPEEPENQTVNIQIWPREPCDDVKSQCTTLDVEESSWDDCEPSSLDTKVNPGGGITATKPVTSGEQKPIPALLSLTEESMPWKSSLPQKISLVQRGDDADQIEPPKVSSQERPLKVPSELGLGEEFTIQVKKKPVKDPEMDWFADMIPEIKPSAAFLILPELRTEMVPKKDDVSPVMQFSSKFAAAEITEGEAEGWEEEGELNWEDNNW
UniProt Q8N9R8: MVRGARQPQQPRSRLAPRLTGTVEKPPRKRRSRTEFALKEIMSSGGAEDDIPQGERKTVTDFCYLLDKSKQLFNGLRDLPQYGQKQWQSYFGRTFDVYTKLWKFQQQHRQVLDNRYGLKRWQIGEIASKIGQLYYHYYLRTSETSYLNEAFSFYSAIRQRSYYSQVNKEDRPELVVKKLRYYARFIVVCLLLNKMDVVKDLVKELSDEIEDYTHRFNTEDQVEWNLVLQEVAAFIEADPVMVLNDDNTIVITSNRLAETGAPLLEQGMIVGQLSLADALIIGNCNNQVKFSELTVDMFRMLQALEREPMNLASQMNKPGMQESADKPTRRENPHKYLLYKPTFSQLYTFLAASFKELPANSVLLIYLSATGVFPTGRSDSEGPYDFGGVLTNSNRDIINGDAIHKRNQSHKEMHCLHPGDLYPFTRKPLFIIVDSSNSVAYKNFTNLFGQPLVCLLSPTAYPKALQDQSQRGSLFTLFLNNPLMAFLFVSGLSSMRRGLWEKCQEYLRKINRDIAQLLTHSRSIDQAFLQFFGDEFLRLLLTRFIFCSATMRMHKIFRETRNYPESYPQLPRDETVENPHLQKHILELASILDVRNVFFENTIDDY
UniProt P26447: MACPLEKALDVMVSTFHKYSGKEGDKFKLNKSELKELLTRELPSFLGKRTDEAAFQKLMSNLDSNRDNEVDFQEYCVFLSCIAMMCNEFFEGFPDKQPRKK
UniProt P60903, whole entry, looked up: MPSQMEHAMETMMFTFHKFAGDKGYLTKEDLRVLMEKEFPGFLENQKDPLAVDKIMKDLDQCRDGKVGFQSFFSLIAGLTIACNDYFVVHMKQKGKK
UniProt O14828: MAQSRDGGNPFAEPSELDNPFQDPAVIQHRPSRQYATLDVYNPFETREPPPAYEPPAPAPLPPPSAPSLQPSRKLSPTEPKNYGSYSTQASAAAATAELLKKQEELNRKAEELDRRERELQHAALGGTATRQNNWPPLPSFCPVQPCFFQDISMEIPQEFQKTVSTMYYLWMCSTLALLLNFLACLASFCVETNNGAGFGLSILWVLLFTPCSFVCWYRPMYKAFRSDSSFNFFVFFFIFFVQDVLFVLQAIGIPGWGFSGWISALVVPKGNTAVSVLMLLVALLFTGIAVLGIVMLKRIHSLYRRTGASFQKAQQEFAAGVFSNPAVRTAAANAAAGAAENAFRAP
UniProt P48443: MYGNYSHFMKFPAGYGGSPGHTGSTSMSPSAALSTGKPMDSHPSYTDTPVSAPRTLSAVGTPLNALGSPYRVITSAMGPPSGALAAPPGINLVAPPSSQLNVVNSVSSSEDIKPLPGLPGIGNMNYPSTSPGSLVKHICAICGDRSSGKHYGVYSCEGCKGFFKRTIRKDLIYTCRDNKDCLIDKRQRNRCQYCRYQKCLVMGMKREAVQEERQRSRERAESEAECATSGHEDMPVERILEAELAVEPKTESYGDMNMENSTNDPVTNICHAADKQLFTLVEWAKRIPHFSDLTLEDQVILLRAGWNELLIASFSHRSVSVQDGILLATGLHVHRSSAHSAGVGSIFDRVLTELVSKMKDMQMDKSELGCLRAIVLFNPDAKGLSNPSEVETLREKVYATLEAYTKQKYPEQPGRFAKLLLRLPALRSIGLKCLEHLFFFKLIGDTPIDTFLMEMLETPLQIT

The other results are listed elsewhere or left out.

Compound in the first assay: Cc1nc(Nc2ncc(C(=O)Nc3c(C)cccc3Cl)s2)cc(N2CCN(CCO)CC2)n1 [dasatinib]
The assay is described as follows: log2 fold change, soluble protein after heating vs DMSO (PISA); higher = thermal stabilisation; K562 cells, 10 uM, 30 min; active = over 0.2 and 3.5 SD of the protein, either way, in both replicates (recomputed). A digest of the protocol: (§1)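 Soluble protein was defined as the supernatant after 21,000xg for 90 min. It came from K562 cells at 2×10^6 cells/mL given 10 μM compound for 30 min, heated in aliquots for 3 min across 48°C-58°C, pooled, and extracted in PBS with 0.5% NP-40 at 4°C, and was quantified by TMTpro 16plex LC-MS/MS with equalised channel sums. Thermal stability against control samples, from duplicates, is reported as log2 fold change.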
As to S100A16 (UniProt Q96FQ6), the log2 fold change is inactive: -0.116.
The same measure, in the same setting: as for S100A2 (UniProt P29034), the figure is inactive: -0.119.
On the same count and under the same terms, as for SBF2 (UniProt Q86WG5), the figure is inactive: 0.033; as for SAMD4A (UniProt Q9UPU9), inactive: 0.034.
The same measure, in the same setting: the result for SEC22A (UniProt Q96IW7) reads inactive: 0.153; that for SDCBP isoform 2 (UniProt O00560), inactive: -0.083.
Take RTN4 isoform 5 (UniProt Q9NQC3): the log2 fold change was inactive: -0.256.
Still for that read-out and setting: as for RTL8C (UniProt A6ZKI3), the figure is inactive: -0.166; as for S100A14 (UniProt Q9HCY8), inactive: -0.441.
On the same count and under the same terms, the result for RTL10 (UniProt Q7L3V2) reads inactive: -0.139; that for SCN4A (UniProt P35499), inactive: 0.01; that for SCRIB isoform 3 (UniProt Q14160), inactive: -0.022.
In the case of SCYL3 isoform 2 (UniProt Q8IZE3), the log2 fold change is inactive: -0.124.
The same measure, in the same setting: the result for SDHB, A0A087WXX8 reads inactive: -0.035.
The same measure, in the same setting: as for SCAI isoform 2 (UniProt Q8N9R8), the figure is inactive: 0.142.

Compound in a further assay: Cc1ncc(-c2ccnc(Nc3ccc(S(C)(=O)=O)cc3)n2)n1C(C)C
The description is as above. A digest of the protocol: as §1
For S100A16 (UniProt Q96FQ6), the log2 fold change was inactive: 0.022.
With S100A2 (UniProt P29034), the log2 fold change was inactive: -0.087.
As for SAFB2 (UniProt K7EQU4), the log2 fold change was inactive: -0.113.
With S100A4 (UniProt P26447), the log2 fold change was inactive: 0.073.
Still for that read-out and setting: the result for RSL24D1 (UniProt Q9UHA3) reads inactive: 0.044; that for SDCBP isoform 2 (UniProt O00560), inactive: -0.205; that for SCGB2A1 (UniProt O75556), inactive: 0.745.
Still for that read-out and setting: the result for RTN4 isoform 5 (UniProt Q9NQC3) reads inactive: 0.061.
On the same count and under the same terms, the result for S100A14 (UniProt Q9HCY8) reads inactive: 0.318; that for SBSN (UniProt Q6UWP8), inactive: 0.113; that for RXYLT1 (UniProt Q9Y2B1), inactive: 0.076.
For SCYL3 isoform 2 (UniProt Q8IZE3), the log2 fold change was inactive: 0.111.
Turning to S100A10 (UniProt P60903), the log2 fold change is inactive: -0.016.
On the same count and under the same terms, as for SDHB, A0A087WXX8, the figure is inactive: -0.057; as for SCAMP3 isoform 2 (UniProt O14828), inactive: -0.01.

Compound in the next assay: Cn1cc(-c2ccc3c(c2)CCN3C(=O)Cc2cccc(C(F)(F)F)c2)c2c(N)ncnc21
The description is as above. A digest of the protocol: as §1
SAYSD1 (UniProt Q9NPB0): the log2 fold change was inactive: 0.14.
S100A2 (UniProt P29034): the log2 fold change was inactive: 0.094.
Same read-out and setting: as for SAP130 isoform 3 (UniProt Q9H0E3), the figure is inactive: 0.086; as for SEC22A (UniProt Q96IW7), inactive: -0.105.
The same measure, in the same setting: as for RTN4 isoform 5 (UniProt Q9NQC3), the figure is inactive: 0.002; as for RTL10 (UniProt Q7L3V2), inactive: 0.056.
Take SCRIB isoform 3 (UniProt Q14160): the log2 fold change was inactive: -0.042.
Still for that read-out and setting: as for SCYL3 isoform 2 (UniProt Q8IZE3), the figure is inactive: -0.062; as for S100A10 (UniProt P60903), inactive: 0.146; as for SDHB, A0A087WXX8, inactive: -0.104.
On the same count and under the same terms, as for SCAI isoform 2 (UniProt Q8N9R8), the figure is inactive: -0.038.

Compound in a further assay: Cn1cc(-c2ccc3nnc(C(F)(F)c4ccc5ncccc5c4)n3n2)cn1
The assay is described as above. In outline: as §1
On to SAP130 isoform 3 (UniProt Q9H0E3), for which the log2 fold change was inactive: 0.001.
Still for that read-out and setting: the result for SBF2 (UniProt Q86WG5) reads inactive: -0.013.
Same read-out and setting: as for S100A4 (UniProt P26447), the figure is inactive: -0.057.
On the same count and under the same terms, as for RSL24D1 (UniProt Q9UHA3), the figure is inactive: -0.345.
In the case of RXRG (UniProt P48443), the log2 fold change is inactive: -0.005.
Still for that read-out and setting: as for SEC22A (UniProt Q96IW7), the figure is inactive: 0.03; as for SDCBP isoform 2 (UniProt O00560), inactive: -0.085; as for RTN4 isoform 5 (UniProt Q9NQC3), inactive: 0.251.
On the same count and under the same terms, the result for RTL8C (UniProt A6ZKI3) reads inactive: -0.144.
With S100A14 (UniProt Q9HCY8), the log2 fold change is inactive: 0.373.
Same read-out and setting: as for RTL10 (UniProt Q7L3V2), the figure is inactive: -0.169; as for SCRIB isoform 3 (UniProt Q14160), inactive: -0.23.
Take SCYL3 isoform 2 (UniProt Q8IZE3): the log2 fold change is inactive: -0.05.
On the same count and under the same terms, the result for SDHB, A0A087WXX8 reads inactive: 0.097; that for SCAMP3 isoform 2 (UniProt O14828), inactive: 0.003.
Regarding SCOC (UniProt Q9UIL1), the log2 fold change was inactive: 0.106.
As to SCAI isoform 2 (UniProt Q8N9R8), the log2 fold change was inactive: -0.001.
Still for that read-out and setting: the result for RUBCN (UniProt Q92622) reads inactive: -0.093.

Compound in the next assay: Cn1cncc1[C@@](N)(c1ccc(Cl)cc1)c1ccc2c(c1)c(-c1cccc(Cl)c1)cc(=O)n2C [tipifarnib]
The description is as above. A digest of the protocol: as §1
Regarding SAYSD1 (UniProt Q9NPB0), the log2 fold change is inactive: -0.007.
The same measure, in the same setting: the result for S100A2 (UniProt P29034) reads inactive: -0.072; that for S100A4 (UniProt P26447), inactive: 0.013.
Still for that read-out and setting: as for SEC22A (UniProt Q96IW7), the figure is inactive: 0.034; as for SDF2 (UniProt Q99470), inactive: 0.243; as for SDCBP isoform 2 (UniProt O00560), inactive: 0.109.
Consider RTN4 isoform 5 (UniProt Q9NQC3), for which the log2 fold change was inactive: 0.092.
Turning to RTL8C (UniProt A6ZKI3), the log2 fold change is inactive: 0.109.
Still for that read-out and setting: as for RTL10 (UniProt Q7L3V2), the figure is inactive: -0.114; as for RXYLT1 (UniProt Q9Y2B1), inactive: -0.361; as for SCYL3 isoform 2 (UniProt Q8IZE3), inactive: 0.044.
Still for that read-out and setting: as for S100A10 (UniProt P60903), the figure is inactive: 0.131; as for SDHB, A0A087WXX8, inactive: 0.054.
As for SCAMP3 isoform 2 (UniProt O14828), the log2 fold change was inactive: -0.001.
